PubChem BioAssay AID504744, Drosophila RNAi Screening Center, 2011
Assay: 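Uncover factors, including feedback loops, that control dAkt activation in fly cells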 (primary screen). Cell system: Drosophila Kc167 cells. Reagent: long dsRNA against Drosophila genes, 250 ng dsRNA per well of a 384-well plate. Time to read-out: 3 days of knock-down, then overnight serum-free starvation before stimulation. Conditions: bovine insulin at 387 nM for 10 minutes after 12 h without serum. Read-out: 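Per-well phospho-dAkt level from an in-cell fluorescent antibody stain, divided by a DNA-dye signal; log2 residuals turned into z-scores that take cell number into account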. Call rule: 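Under insulin, a gene counts as a hit if the average z-score of two replicates lies above 2.5 or below -2.5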.
In all, the deposit lists about 23,000 reagents; below is a random part of those that have a named target and a result. Of all reagents, 98 (0.43%) were called active. 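Only hit calls are given; the phospho-dAkt signals, z-scores and hit direction were not deposited.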 Reagents against one gene are numbered here. Names joined by + are all predicted targets of the reagent.

gene | reagent | call
CG15431 | 1 | inactive
eIF3m (eukaryotic translation initiation factor 3 subunit m) | 1 | inactive
CG30338 | 1 | inactive
CG2533 | 1 | inactive
CG13801 | 1 | inactive
CG5727 | 1 | inactive
CG11037 | 1 | inactive
saturn | 1 | inactive
Vinc (Vinculin) | 1 | inactive
Kal1 (Kallmann syndrome 1) | 1 | inactive
CG31797 | 1 | inactive
CG31797 | 2 | inactive
blp (black pearl) | 1 | inactive
CG14218 | 1 | inactive
ppk11 (pickpocket 11) | 1 | inactive
CG31463 | 1 | inactive
CG18622 | 1 | inactive
eas (easily shocked) | 1 | inactive
CG34370 | 1 | inactive
CG34370 | 2 | inactive
CG34370 | 3 | inactive
CG34370 | 4 | inactive
CG6885 | 1 | inactive
CG12241 | 1 | inactive
CG12715 | 1 | inactive
tst + CG10375 | 1 | inactive
TfAP-2 (Transcription factor AP-2) | 1 | inactive
HP6 (Heterochromatin protein 6) | 1 | inactive
Alg1 (ALG1, chitobiosyldiphosphodolichol beta-mannosyltransferase) | 1 | inactive
Pgant2 (Polypeptide N-Acetylgalactosaminyltransferase 2) | 1 | inactive
CG11672 | 1 | inactive
bbx + waw | 1 | inactive
bbx + waw | 2 | inactive
CG3502 | 1 | inactive
CG13978 | 1 | inactive
fw (furrowed) | 1 | inactive
Atet (ABC transporter expressed in trachea) | 1 | inactive
ras (raspberry) | 1 | inactive
CG2765 | 1 | inactive
Vps4 (Vacuolar protein sorting 4) | 1 | inactive
CG14770 | 1 | inactive
CG16965 | 1 | inactive
CG8312 | 1 | inactive
CG31861 | 1 | inactive
Ythdf (YTH N6-methyladenosine RNA binding protein) | 1 | inactive
Ythdf (YTH N6-methyladenosine RNA binding protein) | 2 | inactive
lectin-28C | 1 | inactive
dj (don juan) | 1 | inactive
CG13137 | 1 | inactive
CG6138 | 1 | inactive
CG2794 | 1 | inactive
CG12994 | 1 | inactive
CG12994 | 2 | inactive
nAChRalpha7 (nicotinic Acetylcholine Receptor alpha7) | 1 | inactive
nAChRalpha7 (nicotinic Acetylcholine Receptor alpha7) | 2 | inactive
CG14053 | 1 | inactive
CG32073 | 1 | inactive
CG32073 | 2 | inactive
CR33315 (pseudo) | 1 | inactive
mRpL9 (mitochondrial ribosomal protein L9) | 1 | inactive
CG33259 | 1 | inactive
CG14495 | 1 | inactive
parvin | 1 | inactive
CG11200 | 1 | inactive
CG13733 | 1 | inactive
E(spl)m8-HLH (Enhancer of split m8, helix-loop-helix) | 1 | inactive
CheA7a (Chemosensory protein A 7a) | 1 | inactive
beta-Spec (beta Spectrin) | 1 | inactive
enc (encore) | 1 | inactive
CG18268 + CG3014 | 1 | inactive
CG6325 | 1 | inactive
ZnT41F (Zinc transporter 41F) | 1 | inactive
CG15882 | 1 | inactive
Snp (Snipper) | 1 | inactive
Snp (Snipper) | 2 | inactive
yip2 (yippee interacting protein 2) | 1 | inactive
mute (muscle wasted) | 1 | inactive
mute (muscle wasted) | 2 | inactive
Lam (Lamin) | 1 | inactive
CG10026 | 1 | inactive
Vajk1 | 1 | inactive
CG34221 | 1 | inactive
CG11313 | 1 | inactive
CG13299 | 1 | inactive
CG31313 | 1 | inactive
Ugt307A1 (UDP-glycosyltransferase family 307 member A1) | 1 | inactive
CG11961 | 1 | inactive
me31B (maternal expression at 31B) | 1 | inactive
CG46491 | 1 | inactive
CG46491 | 2 | inactive
CG30196 | 1 | inactive
glob1 (globin 1) | 1 | inactive
MED8 (Mediator complex subunit 8) | 1 | inactive
Acyp (Acylphosphatase) | 1 | inactive
CRMP (Collapsin Response Mediator Protein) | 1 | inactive
CRMP (Collapsin Response Mediator Protein) | 2 | inactive
dyw (daywake) | 1 | inactive
ERp60 (Endoplasmic reticulum p60) | 1 | inactive
Nadk1b (NAD kinase 1b) | 1 | inactive
Nadk1b (NAD kinase 1b) | 2 | inactive
Nadk1b (NAD kinase 1b) | 3 | inactive
sprt (sprite) | 1 | inactive
jv (javelin) | 1 | inactive
jv (javelin) | 2 | inactive
CG32299 + CG32298 | 1 | inactive
CG32299 + CG32298 | 2 | inactive
CG34041 | 1 | inactive

14 entries from above, reformatted.
gene,reagent,call
nAChRalpha7 (nicotinic Acetylcholine Receptor alpha7),1,inactive
nAChRalpha7 (nicotinic Acetylcholine Receptor alpha7),2,inactive
CG14053,1,inactive
CG32073,1,inactive
CG32073,2,inactive
CR33315 (pseudo),1,inactive
mRpL9 (mitochondrial ribosomal protein L9),1,inactive
CG33259,1,inactive
CG14495,1,inactive
parvin,1,inactive
CG11200,1,inactive
CG13733,1,inactive
"E(spl)m8-HLH (Enhancer of split m8, helix-loop-helix)",1,inactive
CheA7a (Chemosensory protein A 7a),1,inactive
